In PubChem BioAssay AID493014 (National Center for Advancing Translational Sciences (NCATS), 2011):
This is one part of the list. The main result of the screen is listed elsewhere. These columns were measured beside it and carry no call. Most of these compounds were active or inconclusive in the main read-out, so they are no random draw. Potencies come from curve fits of mixed quality, noted in brackets.

Test: qHTS Assay to Find Inhibitors of Chronic Active B-Cell Receptor Signaling
Details: ABC-DLBCL IkBa-CBG/CBR reporter, luminescence ratio (green luciferase fused to IkBa over red control in TMD8 lymphoma cells), 4 h
Summary of the method: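 TMD8 ABC-DLBCL cells carrying doxycycline-inducible green luciferase fused to IkappaBalpha plus unfused red luciferase were exposed to compounds (up to 46 uM) for 4 hrs at 37C. Activity came from the overlap-corrected green/red luminescence ratio.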

[1] = measured here: CBR red luminescence, cell number
[2] = measured here: IkBa-CBG green luminescence

Structure (SMILES) | AC50 [1] | AC50 [2]
CC(/C=N/NC(=O)c1cc(-c2ccccc2)nc2ccccc12)=C\c1ccco1 | 8.2 µM [rising, partial curve] | 18.4 µM [falling, partial curve]
O=C1/C(=C\Nc2ccccc2)CCN1c1ncccn1 | 18.4 µM [falling, single point] | –
Cc1ccccc1C(=O)NC(NCC1CCCO1)C(Cl)(Cl)Cl (stereo not drawn) | 8.91 µM [falling, partial curve, poor fit] | –
COc1cc(CCC(=O)N2CCN(c3ccc(N4CCOCC4)nn3)CC2)cc(OC)c1OC | 4.11 µM [falling, single point] | –
O=c1[nH]c(CSc2ncn[nH]2)nc2ccccc12 | 15.8 µM [rising, single point] | –
CC1CN(C(=O)c2cccc(COc3ccc(Br)cc3)c2)CC(C)O1 (stereo not drawn) | 2.31 µM [rising, partial curve] | –
O=C(C1CCN(Cc2ccccc2)CC1)N1CCN(C/C=C/c2ccccc2)CC1 | 0.13 µM [rising, full curve, poor fit] | –
COc1ccc(/C=N\NC(=O)c2ccccc2OC)cc1COc1c(F)c(F)c(F)c(F)c1F | 5.62 µM [falling, full curve] | –
C=CCOC(=O)Nc1ccc(Cl)cc1NC(=O)OCC=C | 25.9 µM [rising, single point] | –
O=C(NN1C(=O)c2ccccc2NC1c1ccc([N+](=O)[O-])o1)c1ccccc1 (stereo not drawn) | 35.5 µM [falling, single point] | –
O=C(NNC1=Nc2cc([N+](=O)[O-])ccc2OC1)c1ccccc1Cl | 15.8 µM [falling, single point] | –
CCOC(=O)C1CCCN(CC(=O)c2c[nH]c3ccc(C)cc23)C1 (stereo not drawn) | 5.62 µM [rising, single point] | –
CN1/C(=C\C(=O)Nc2ccc(F)cc2)C(C)(C)c2ccccc21 | 18.4 µM [falling, single point] | 29.1 µM [rising, single point]
CC(C)/C=N/NC(=O)c1cc(Br)ccc1O | 1.16 µM [falling, full curve] | –
O=C1CN(C(=O)c2cc3ccccc3o2)c2ccccc2N1 | 32.6 µM [falling, single point] | –
COc1ccccc1/C=C/CN1CCCC(CO)(Cc2cccc(Cl)c2)C1 (stereo not drawn) | 0.447 µM [falling, full curve, poor fit] | –
Cc1ccc(Nc2nc(-c3ccccc3)nc3ccccc23)cc1 | – | 15.8 µM [rising, partial curve, poor fit]
COc1cc(OC)cc(C(=O)O/N=C(\N)c2ccncc2)c1 | 4.61 µM [rising, partial curve] | –
NNC(=O)CSCc1nc(-c2ccccc2)cs1 | 0.316 µM [falling, full curve, poor fit] | –
COc1ccc(Cc2nc(-c3ccc(-n4cccc4)cc3)no2)cc1 | 3.26 µM [rising, partial curve, poor fit] | –
CC(=O)c1ccc(OCc2cc(C(=O)N(C)C(C)c3nccs3)no2)cc1 (stereo not drawn) | 14.1 µM [rising, partial curve, poor fit] | –

3 structures from above, sorted by molar mass, rising.
Structure (SMILES) | AC50 [1] | AC50 [2]
O=c1[nH]c(CSc2ncn[nH]2)nc2ccccc12 | 15.8 µM [rising, single point] | –
O=C1/C(=C\Nc2ccccc2)CCN1c1ncccn1 | 18.4 µM [falling, single point] | –
O=C(NNC1=Nc2cc([N+](=O)[O-])ccc2OC1)c1ccccc1Cl | 15.8 µM [falling, single point] | –

(cont.)

Structure (SMILES) | AC50 [1] | AC50 [2]
O=C(/C=C/c1cccs1)Nc1cccc(NC(=O)/C=C/c2cccs2)n1 | 9.2 µM [falling, partial curve] | –
O=C(Nc1nc(-c2cc(F)ccc2F)cs1)c1ccccn1 | 15.8 µM [rising, partial curve, poor fit] | –
CCOC(=O)c1nnn(-c2nonc2N)c1CNc1ccc(C)c(Br)c1 | 32.6 µM [falling, partial curve, poor fit] | –
C=CCOC(=O)C1=C(C)NC(SCC(=O)N(CC)CC)=C(C#N)C1c1ccccc1 (stereo not drawn) | 12.6 µM [falling, single point] | –
CCN1CCN(C(=O)Nc2ccc(Cc3ccc(NC(=O)N4CCN(CC)CC4)cc3)cc2)CC1 | 10 µM [falling, partial curve, poor fit] | –
COc1ccc(NC(=O)c2cc(-c3ccccc3)on2)cc1 | 1.26 µM [falling, full curve, poor fit] | –
CCOc1cc(NC(=O)c2ccco2)c(OCC)cc1NC(=O)Cc1cccc(OC)c1 | 0.184 µM [falling, full curve, poor fit] | –
O=C(NCCN1CCN(c2ccccc2F)CC1)c1ccc2nc3ccccc3c(=O)n2c1 | 0.398 µM [rising, full curve, poor fit] | –
COc1ccc(N/C=C/C(=O)C(F)(F)F)cc1 | 14.6 µM [rising, partial curve, poor fit] | –
Cn1c2ccccc2c2cc(C(=O)NNC(=O)CCl)sc21 | 11.2 µM [falling, partial curve] | –
O=C(CCc1ccccc1)N1CCN(c2ccccc2F)CC1 | 14.1 µM [rising, single point] | –
COc1ccc(OCc2ccc(C(=O)O)cc2)cc1 | 9.2 µM [falling, partial curve] | –
Cc1nnc(NCCc2ccccc2)c2ccccc12 | 15.8 µM [falling, single point] | –
O=C(/C=C/c1ccc(F)cc1)N1CCCN(C(=O)/C=C/c2ccc(F)cc2)CC1 | 7.31 µM [falling, partial curve, poor fit] | –
O=C(c1ccc(CS(=O)Cc2ccc(Cl)cc2)o1)N1CCN(c2cccc(Cl)c2)CC1 (stereo not drawn) | 17.8 µM [falling, single point] | –
O=C(NCc1ccco1)c1ccc(-c2ccccc2Cl)o1 | 20 µM [falling, single point] | –
COc1ccc(Cl)cc1-n1c(C)cc(C=O)c1C | 6.51 µM [rising, single point] | –
NC(=O)c1ccccc1N/C=C/C(=O)c1ccc(F)cc1 | 2 µM [falling, full curve] | –
O=C(CSc1nnc(-c2ccc(Cl)cc2)n1-c1ccc(Cl)cc1)N/N=C/c1ccco1 | 2.06 µM [rising, full curve, poor fit] | –
Cc1ccc(NC(=O)CNc2ccccc2CN(C)C2CCCCC2)cc1 | 25.1 µM [falling, partial curve, poor fit] | –
